# From paper PMC7321161, “The Intriguing Effects of Substituents in the N-Phenethyl Moiety of Norhydromorphone: A Bifunctional Opioid from a Set of “Tail Wags Dog” Experiments” (Molecules, 2020)
# Entries after “also recorded” stand apart in the source; their conditions may differ.
# Tested on: squirrel monkeys
# Assay: Squirrel monkey ventilation (whole-body plethysmograph, air or 5% CO2)
# Assay type: in vivo, Saimiri sciureus
# Procedure: Gas (either air or a 5% CO2 in air mixture) was introduced to and extracted from the chamber at a constant flow rate of 5 L/min. Experimental sessions consisted of 4–6 consecutive 30 min cycles, each comprising a 15 min exposure to air followed by a 15 min exposure to 5% CO2. Drug effects were determined using cumulative dosing procedures, and injections were administered following each exposure to 5% CO2. Respiratory rate and tidal volume (mL/breath) were recorded over 1 min periods and were multiplied to provide minute volumes. Data from the last three minutes of each exposure to air or CO2 were averaged and used for analysis of drug effects on ventilation.
structure (smiles),measurement,setting,value
"CN1CC[C@]23c4c5ccc(O)c4O[C@H]2[C@@H](O)C=C[C@H]3[C@H]1C5 [Morphine, reference compound]",Effect on ventilation (minute volume) during exposure to 5% CO2 mixed in air (hypercapnia),,significantly reduced minute volume in 5% CO2; also recorded: significantly decreased ventilation
same,Effect on respiratory rate or ventilation (minute volume) during exposure to air alone,"2i 0.003–0.1 mg/kg, morphine 0.03–3.0 mg/kg",neither 2i (0.003–0.1 mg/kg) nor morphine (0.03–3.0 mg/kg) had effects
